Laboratory results reported in patent US5159061A (Takeda Chemical Industries, Ltd., priority 1986, dated 1992).

Assay: general procedure: solution-phase peptide synthesis; HONB/DCC (ONB active esters)
Details: coupling step

| Substance | step yield [%] |
| --- | --- |
| Boc-Achc-Cys(MBzl)Phe-Gly-Gly-OH | 54.9 |
| Boc-Aib-Cys(MBzl)-Phe-Gly-Gly-Arg(Pme)-Leu-Asp(OBzl)-Arg(Pme)-Ile-Gly-Ala- Gln-Ser-Gly-Leu-Gly-Cys(MBzl)-Asn-Ser(Bzl)-Phe-Arg(Pme)-Tyr(Bzl)-OBzl | 84.4 |
| Boc-Aib-Cys(MBzl)-Phe-Gly-Gly-Arg(Pme)-Met-Asp(OBzl)-Arg(Pme)-Ile-Gly-Ala- Gln-Ser-Gly-Leu-Gly-Cys(MBzl)-Asn-Ser(Bzl)-Phe-Arg(Pme)-Tyr(Bzl)-OBzl | 82.3 |
| Boc-Aib-Cys(MBzl)-Phe-Gly-Gly-Arg(Pme)-Nle-Asp(OBzl)-Arg(Pme)-Ile-Gly-Ala- Gln-Ser-Gly-Leu-Gly-Cys(MBzl)-Asn-Ser(Bzl)-Phe-Arg(Pme)-Tyr(Bzl)-OBzl | 82.5 |
| Boc-Aib-Cys(MBzl)-Phe-Gly-Gly-OH | 69.8 |
| Boc-Ala-Cys(MBzl)-Phe-Gly-Gly-Arg(Pme)-Met-Asp(OBzl)-Arg(Pme)-Ile-Gly-Ala- Gln-Ser-Gly-Leu-Gly-Cys(MBzl)-Asn-Ser(Bzl)-Phe-Arg(Pme)-Tyr(Bzl)-OBzl | 95.3 |
| Boc-Ala-Cys(MBzl)-Phe-Gly-Gly-OH | 79.0 |
| Boc-Ala-Gin-Ser-Gly-Leu-Gly-Cys(MBzl)-Asn-Ser(Bzl)-Phe-Arg(Pme)-Tyr(Bzl)-OBzl | 87.1 |
| Boc-Ala-Gln-Ser-Gly-Leu-Gly-Cys(MBzl)-Asn-Ser(Bzl)-Phe-D-Arg(Tos)-Tyr(Bzl)-OBzl | 95.9 |
| Boc-Arg(Pme)-Ile-Asp(OBzl)-Arg(Pme)-Ile-Gly-Ala-Gln-Ser-Gly-Leu-Gly-Cys(MBzl)-Asn-Ser(Bzl)-Phe-Arg(Pme)-Tyr(Bzl)-OBzl | 84.7 |
| Boc-Arg(Pme)-Ile-Asp(OBzl)-Arg(Pme)-Ile-Gly-OH | 61.6 |
| Boc-Arg(Pme)-Leu-Asp(OBzl)-Arg(Pme)-Ile-Gly-OHI | 73.2 |
| Boc-Arg(Pme)-Met-Asp(OBzl)-Arg(Pme)-Ile-Gly-Ala-Gln-Ser-Gln-Leu-Gly-Cys(MBzl)-Asn-Ser(Bzl)-Phe-D-Arg(Tos)-Tyr(Bzl)-OBzl | 76.9 |
| Boc-Arg(Pme)-Met-Asp(OBzl)-Arg(Pme)-Ile-Gly-Ala-Gln-Ser-Gly-Leu-Gly-Cys(MBzl)-Asn-Ser(Bzl)-Phe-Arg(Pme)-Tyr(Bzl)-OBzl | 84.0 |
| Boc-Arg(Pme)-Met-Asp(OBzl)-Arg(Pme)-Ile-Gly-OH | 85.2 |
| Boc-Arg(Pme)-Nle-Asp(OBzl)-Arg(Pme)-Ile-Gly-OH | 73.2 |
| Boc-Asn-Ser(Bzl)-Phe-Arg(Pme)-Tyr(Bzl)-Obzl | 96.0 |
| Boc-Asp-(OBzl)-Arg(Pme)-Ile-Gly-OH.CHA | 64.3 |
| Boc-Cys(MBzl)-Asn-Ser(Bzl)-Phe-Arg(Pme)-Tyr(Bzl)-OBzl | 96.9 |
| Boc-Cys(MBzl)-Asn-Ser(Bzl)-Phe-D-Arg(Tos)-Tyr(Bzl)-OBzl | 92.9 |
| Boc-Cys(MBzl)-Phe-Ava-Arg(Pme)-Met-Asp(OBzl)-Arg(Pme)-Ile-Gly-Ala-Gln-Ser- Gly-Leu-Cys(MBzl)-Asn-Ser(Bzl)-Phe-Arg(Pme)-Tyr(Bzl)-OBzl | 97.3 |
| Boc-Cys(MBzl)-Phe-D-Ala-Gly-Arg(Pme)-Met-Asp(OBzl)-Arg(Pme)-Ile-Gly-Ala-Gln-Ser-Gly-Leu-Gly-Cys(MBzl)-Asn-Ser-Phe-Arg(Pme)-Tyr(Bzl)-OBzl | 83.8 |

| Substance | step yield [%] |
| --- | --- |
| Boc-Cys(MBzl)-Phe-D-Ala-Gly-OH | 38.9 |
| Boc-Cys(MBzl)-Phe-Gaba-Arg(Pme)-Met-Asp(OBzl)-Arg(Pme)-Ile-Gly-Ala-Gln-Ser-Gly-Leu-Gly-Cys(MBzl)-Asn-Ser(Bzl)-Phe-Arg(Pme)-Tyr(Bzl)-OBzl | 78.4 |
| Boc-Cys(MBzl)-Phe-Gly-Arg(Pme)-Met-Asp(OBzl)-Arg(Pme)-Ile-Gly-Ala-Gln-Ser- Gly-Leu-Gly-Cys(MBzl)-Asn-Ser(Bzl)-Phe-Arg(Pme)-Tyr(Bzl)-OBzl | 78.0 |
| Boc-Cys(MBzl)-Phe-Gly-Arg(Pme)-Met-Asp(OBzl)-Arg(Pme)-Ile-Gly-OH | 77.7 |
| Boc-Cys(MBzl)-Phe-Gly-Gly-Arg(Pme)-Met-Asp(OBzl)-Arg(Pme)-Ile-Gly-Ala-Gln- Ser-Gly-Leu-Gly-Cys(MBzl)-Asn-Ser(Bzl)-Phe-D-Arg(Tos)-Tyr(Bzl)-OBzl | 78.1 |
| Boc-Cys(MBzl)-Phe-Gly-Gly-OH | 69.1 |
| Boc-Cys(MBzl)-Phe-βAla-Arg(Pme)-Met-Asp(OBzl)-Arg(PME)-Ile-Gly-Ala-Gln-Ser-Gly-Leu-Gly-Cys(MBzl)-Asn-Ser(Bzl)-Phe-Arg(Pme)-Tyr(Bzl)-OBzl | 94.0 |
| Boc-D-Ala-Cys(MBzl)-Phe-Gly-Gly-Arg(Pme)-Met-Asp(OBzl)-Arg(Pme)-Ile-Gly-Ala-Gln-Ser-Gly-Leu-Gly-Cys(MBzl)-Asn-Ser(Bzl)-Phe-Arg(Pme)-Tyr(Bzl)-OBzl | 92.5 |
| Boc-DAla-Cys(MBzl)-Phe-Gly-Gly-OH | 76.0 |
| Boc-Gly-Arg(Pme)-Met-Asp(OBzl)-Arg(Pme)-Ile-Gly-OH | 94.8 |
| Boc-Ile-Asp(OBzl)-Arg(Pme)-Ile-Gly-OH | 82.0 |
| Boc-Ile-Cys(MBzl)-Phe-Gly-Gly-Arg(Pme)-Met-Asp(OBzl)-Arg(Pme)-Ile-Gly-Ala- Gln-Ser-Gly-Leu-Gly-Cys(MBzl)-Asn-Ser(Bzl)-Phe-Arg(Pme)-Tyr(Bzl)-OBzl | 95.2 |
| Boc-Ile-Cys(MBzl)-Phe-Gly-Gly-OH | 83.0 |
| Boc-Leu-asp(OBzl)-Arg(Pme)-Ile-Gly-OH | 87.8 |
| Boc-NS(Bn)F[dR](Tos)Y(Bn)-OBn | 86.6 |
| Boc-Nle-Asp(OBzl)-Arg(Pme)-Ile-Gly-OH | 97.0 |
| Boc-Phe-Gly-Arg(Pme)-Met-Asp(OBzl)-Arg(Pme)-Ile-Gly-OH | 76.3 |
| Boc-S(Bn)GLG-OBn | 78.3 |
| Boc-Ser(Bzl)-Phe-Arg(Pme)-Tyr(Bzl)-OBzl | 94.4 |
| Boc-Val-Cys(MBzl)-Phe-Gly-Gly-Arg(Pme)-Met-Asp(OBzl)-Arg(Pme)-Ile-Gly-Ala- Gln-Ser-Gly-Leu-Gly-Cys(MBzl)-Asn-Ser(Bzl)-Phe-Arg(Pme)-Tyr(Bzl)-OBzl | 9.2 |
| Boc-Val-Cys(MBzl)-Phe-Gly-Gly-OH | 92.7 |

Same assay, conditions: late stage modification step

| Substance | step yield [%] |
| --- | --- |
| Boc-AQSGLG-OH | 94.3 |

Same assay, conditions: oxidative folding step

| Substance | oxidative folding yield [%] |
| --- | --- |
| PEPTIDE1{[Aib].C.F.G.G.R.M.D.R.I.G.A.Q.S.G.L.G.C.N.S.F.R.Y}$PEPTIDE1,PEPTIDE1,2:R3-18:R3$$$V2.0 | 12 |
| [Aib^6, Leu^12 ]α-hANP[6-28] | 22 |
| [Aib^6, Nle^12 ]-α-hANP[6-28] | 14.4 |
| [βAla^9, des Gly^10 ]-α-hANP[7-28] | 17 |

Some peptides are written in HELM: one residue between dots, names in brackets for other building blocks, links after the first $. [ ]: non-standard residue; d: D form. The star is where a group is joined. Tos = Cc1ccc(S(=O)(=O)*)cc1; Boc = CC(C)(C)OC(=O)*; OBn = c1ccc(CO*)cc1; Bn = c1ccc(C*)cc1
